B1: Non-structural maintenance of chromosomes element 3 homolog (protein, UniProt Q96MG7 1-304)
chain: MLQKPRNRGRSGGQAERDRDWSHSGNPGASRAGEDARVLRDGFAEEAPSTSRGPGGSQGSQGPSPQGARRAQAAPAVGPRSQKQLELKVSELVQFLLIKDQKKIPIKRADILKHVIGDYKDIFPDLFKRAAERLQYVFGYKLVELEPKSNTYILINTLEPVEEDAEMRGDQGTPTTGLLMIVLGLIFMKGNTIKETEAWDFLRRLGVYPTKKHLIFGDPKKLITEDFVRQRYLEYRRIPHTDPVDYEFQWGPRTNLETSKMKVLKFVAKVHNQDPKDWPAQYCEALADEENRARPQPSGPAPSS
B2: Melanoma-associated antigen MAGEC1 (protein, UniProt O60732 1-1142)
chain: MGDKDMPTAGMPSLLQSSSESPQSCPEGEDSQSPLQIPQSSPESDDTLYPLQSPQSRSEGEDSSDPLQRPPEGKDSQSPLQIPQSSPEGDDTQSPLQNSQSSPEGKDSLSPLEISQSPPEGEDVQSPLQNPASSFFSSALLSIFQSSPESTQSPFEGFPQSVLQIPVSAASSSTLVSIFQSSPESTQSPFEGFPQSPLQIPVSRSFSSTLLSIFQSSPERTQSTFEGFAQSPLQIPVSPSSSSTLLSLFQSFSERTQSTFEGFAQSSLQIPVSPSFSSTLVSLFQSSPERTQSTFEGFPQSPLQIPVSSSSSSTLLSLFQSSPERTHSTFEGFPQSLLQIPMTSSFSSTLLSIFQSSPESAQSTFEGFPQSPLQIPGSPSFSSTLLSLFQSSPERTHSTFEGFPQSPLQIPMTSSFSSTLLSILQSSPESAQSAFEGFPQSPLQIPVSSSFSYTLLSLFQSSPERTHSTFEGFPQSPLQIPVSSSSSSSTLLSLFQSSPECTQSTFEGFPQSPLQIPQSPPEGENTHSPLQIVPSLPEWEDSLSPHYFPQSPPQGEDSLSPHYFPQSPPQGEDSLSPHYFPQSPQGEDSLSPHYFPQSPPQGEDSMSPLYFPQSPLQGEEFQSSLQSPVSICSSSTPSSLPQSFPESSQSPPEGPVQSPLHSPQSPPEGMHSQSPLQSPESAPEGEDSLSPLQIPQSPLEGEDSLSSLHFPQSPPEWEDSLSPLHFPQFPPQGEDFQSSLQSPVSICSSSTSLSLPQSFPESPQSPPEGPAQSPLQRPVSSFFSYTLASLLQSSHESPQSPPEGPAQSPLQSPVSSFPSSTSSSLSQSSPVSSFPSSTSSSLSKSSPESPLQSPVISFSSSTSLSPFSEESSSPVDEYTSSSDTLLESDSLTDSESLIESEPLFTYTLDEKVDELARFLLLKYQVKQPITKAEMLTNVISRYTGYFPVIFRKAREFIEILFGISLREVDPDDSYVFVNTLDLTSEGCLSDEQGMSQNRLLILILSIIFIKGTYASEEVIWDVLSGIGVRAGREHFAFGEPRELLTKVWVQEHYLEYREVPNSSPPRYEFLWGPRAHSEVIKRKVVEFLAMLKNTVPITFPSSYKDALKDVEERAQAIIDTTDDSTATESASSSVMSPSFSSE
B3: Melanoma-associated antigen MAGEC3 (protein, UniProt Q8TD91 1-643)
chain: MLLPCHWVLDATFSDGSLGQWVKNTCATYALSPVVLPPQPQPRKKATDKDYSAFHLGHLREVRLFLRGGTSDQRMDSLVLCPTYFKLWRTLSGSPGLQLSDLHFGSQPEGKFSLRRAVSVKQREEPQDWPLNEKRTLWKDSDLPTWRRGTGYTLSLPAVSPGKRLWGEKAGSLPESEPLFTYTLDEKVDKLVQFLLLKYQAKEPLTRAEMQMNVINTYTGYFPMIFRKAREFIEILFGISLTEVDPDHFYVFVNTLDLTCEGSLSDEQGMPQNRLLILILSVIFIKGNCASEEVIWEVLNAIGPWSALAGFADVLSRLALWESEGPEAFCEESGLRSAEGSVLDLANPQGLAGHRQEDGRRGLTEASPQQKKGGEDEDMPAAGMPPLPQSPPEIPPQGPPKISPQGPPQSPPQSPLDSCSSPLLWTRLDEESSSEEEDTATWHALPESESLPRYALDEKVAELVQFLLLKYQTKEPVTKAEMLTTVIKKYKDYFPMIFGKAHEFIELIFGIALTDMDPDNHSYFFEDTLDLTYEGSLIDDQGMPKNCLLILILSMIFIKGSCVPEEVIWEVLSAIGPIQRPAREVLEFLSKLSSIIPSAFPSWYMDALKDMEDRAQAIIDTTDDATAMASASPSVMSTNFCPE
B4: Melanoma-associated antigen MAGEB18 (protein, UniProt Q96M61 1-343)
chain: MPRGQKSKLRAREKRHQARCENQDLGATQATVAEGESPSPAYLLFGDRPQNLPAAETPSIPEALQGAPSTTNAIAPVSCSSNEGASSQDEKSLGSSREAEGWKEDPLNKKVVSLVHFLLQKYETKEPITKGDMIKFVIRKDKCHFNEILKRASEHMELALGVDLKEVDPIRHYYAFFSKLDLTYDETTSDEEKIPKTGLLMIALGVIFLNGNRAPEEAVWEIMNMMGVYADRKHFLYGDPRKVMTKDLVQLKYLEYQQVPNSDPPRYEFLWGPRAHAETSKMKVLEFVAKIHDTVPSAFPSCYEEALRDEEQRTQARAAARAHTAAMANARSRTTSSSFSHAK
B5: Non-structural maintenance of chromosomes element 4 homolog A (protein, UniProt Q9NXX6 1-385)
chain: MSGDSSGRGPEGRGRGRDPHRDRTRSRSRSRSPLSPRSRRGSARERREAPERPSLEDTEPSDSGDEMMDPASLEAEADQGLCRQIRHQYRALINSVQQNREDILNAGDKLTEVLEEANTLFNEVSRAREAVLDAHFLVLASDLGKEKAKQLRSDLSSFDMLRYVETLLTHMGVNPLEAEELIRDEDSPDFEFIVYDSWKITGRTAENTFNKTHTFHFLLGSIYGECPVPKPRVDRPRKVPVIQEERAMPAQLRRMEESHQEATEKEVERILGLLQTYFREDPDTPMSFFDFVVDPHSFPRTVENIFHVSFIIRDGFARIRLDQDRLPVIEPVSINEENEGFEHNTQVRNQGIIALSYRDWEEIVKTFEISEPVITPSQRQQKPSA

The chains behind the UniProt entries cited, without tags or fusion partners. Where a name states a change or a piece, a line headed by the entry shows the natural chain unless it says otherwise.
UniProt P03072: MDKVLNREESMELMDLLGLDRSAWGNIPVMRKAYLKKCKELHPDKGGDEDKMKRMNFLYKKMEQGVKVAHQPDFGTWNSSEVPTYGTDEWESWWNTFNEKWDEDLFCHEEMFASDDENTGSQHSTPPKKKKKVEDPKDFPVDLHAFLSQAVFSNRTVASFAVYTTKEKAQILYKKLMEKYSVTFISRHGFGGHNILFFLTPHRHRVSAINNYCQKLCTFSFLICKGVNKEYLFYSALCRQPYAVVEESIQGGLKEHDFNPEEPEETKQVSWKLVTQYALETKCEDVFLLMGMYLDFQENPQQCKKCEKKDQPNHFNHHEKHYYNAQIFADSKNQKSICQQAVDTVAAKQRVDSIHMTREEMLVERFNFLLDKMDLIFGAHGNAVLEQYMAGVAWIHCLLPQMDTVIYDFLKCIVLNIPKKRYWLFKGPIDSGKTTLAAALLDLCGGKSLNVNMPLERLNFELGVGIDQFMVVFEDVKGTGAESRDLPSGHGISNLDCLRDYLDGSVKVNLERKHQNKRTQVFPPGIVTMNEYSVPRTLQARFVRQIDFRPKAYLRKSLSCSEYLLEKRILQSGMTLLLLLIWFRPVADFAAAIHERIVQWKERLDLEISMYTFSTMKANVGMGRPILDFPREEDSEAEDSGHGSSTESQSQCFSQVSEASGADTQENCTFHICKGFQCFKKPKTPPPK
UniProt Q96SB3: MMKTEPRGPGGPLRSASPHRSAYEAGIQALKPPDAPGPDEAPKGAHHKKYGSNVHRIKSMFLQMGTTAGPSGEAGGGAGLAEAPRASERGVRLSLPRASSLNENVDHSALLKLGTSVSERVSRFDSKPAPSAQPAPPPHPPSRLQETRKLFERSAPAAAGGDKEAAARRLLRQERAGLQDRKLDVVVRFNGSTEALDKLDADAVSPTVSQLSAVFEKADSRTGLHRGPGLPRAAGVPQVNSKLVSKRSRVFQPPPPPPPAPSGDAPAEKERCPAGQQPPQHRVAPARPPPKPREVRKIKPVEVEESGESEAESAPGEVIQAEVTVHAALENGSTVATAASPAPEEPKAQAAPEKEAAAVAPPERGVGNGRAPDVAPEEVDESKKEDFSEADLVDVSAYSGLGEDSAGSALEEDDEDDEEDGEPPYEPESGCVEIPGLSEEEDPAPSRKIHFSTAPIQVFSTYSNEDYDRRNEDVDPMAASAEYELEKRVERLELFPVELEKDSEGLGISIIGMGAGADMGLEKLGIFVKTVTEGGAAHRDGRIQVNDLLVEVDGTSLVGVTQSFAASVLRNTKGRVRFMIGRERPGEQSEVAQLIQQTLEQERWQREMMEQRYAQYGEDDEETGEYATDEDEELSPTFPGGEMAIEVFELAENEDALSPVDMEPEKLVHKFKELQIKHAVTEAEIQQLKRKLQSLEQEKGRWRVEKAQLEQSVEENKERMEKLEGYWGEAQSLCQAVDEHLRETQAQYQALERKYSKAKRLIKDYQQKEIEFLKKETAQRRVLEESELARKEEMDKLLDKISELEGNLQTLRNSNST
UniProt P43355: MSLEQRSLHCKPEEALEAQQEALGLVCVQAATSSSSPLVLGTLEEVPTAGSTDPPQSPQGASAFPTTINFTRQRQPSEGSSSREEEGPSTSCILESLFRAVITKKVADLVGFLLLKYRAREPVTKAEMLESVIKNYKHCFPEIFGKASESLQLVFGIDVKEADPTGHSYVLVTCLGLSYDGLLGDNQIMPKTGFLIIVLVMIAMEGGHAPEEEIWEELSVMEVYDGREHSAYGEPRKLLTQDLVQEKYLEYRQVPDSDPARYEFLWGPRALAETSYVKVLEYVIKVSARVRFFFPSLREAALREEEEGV
UniProt Q7Z406: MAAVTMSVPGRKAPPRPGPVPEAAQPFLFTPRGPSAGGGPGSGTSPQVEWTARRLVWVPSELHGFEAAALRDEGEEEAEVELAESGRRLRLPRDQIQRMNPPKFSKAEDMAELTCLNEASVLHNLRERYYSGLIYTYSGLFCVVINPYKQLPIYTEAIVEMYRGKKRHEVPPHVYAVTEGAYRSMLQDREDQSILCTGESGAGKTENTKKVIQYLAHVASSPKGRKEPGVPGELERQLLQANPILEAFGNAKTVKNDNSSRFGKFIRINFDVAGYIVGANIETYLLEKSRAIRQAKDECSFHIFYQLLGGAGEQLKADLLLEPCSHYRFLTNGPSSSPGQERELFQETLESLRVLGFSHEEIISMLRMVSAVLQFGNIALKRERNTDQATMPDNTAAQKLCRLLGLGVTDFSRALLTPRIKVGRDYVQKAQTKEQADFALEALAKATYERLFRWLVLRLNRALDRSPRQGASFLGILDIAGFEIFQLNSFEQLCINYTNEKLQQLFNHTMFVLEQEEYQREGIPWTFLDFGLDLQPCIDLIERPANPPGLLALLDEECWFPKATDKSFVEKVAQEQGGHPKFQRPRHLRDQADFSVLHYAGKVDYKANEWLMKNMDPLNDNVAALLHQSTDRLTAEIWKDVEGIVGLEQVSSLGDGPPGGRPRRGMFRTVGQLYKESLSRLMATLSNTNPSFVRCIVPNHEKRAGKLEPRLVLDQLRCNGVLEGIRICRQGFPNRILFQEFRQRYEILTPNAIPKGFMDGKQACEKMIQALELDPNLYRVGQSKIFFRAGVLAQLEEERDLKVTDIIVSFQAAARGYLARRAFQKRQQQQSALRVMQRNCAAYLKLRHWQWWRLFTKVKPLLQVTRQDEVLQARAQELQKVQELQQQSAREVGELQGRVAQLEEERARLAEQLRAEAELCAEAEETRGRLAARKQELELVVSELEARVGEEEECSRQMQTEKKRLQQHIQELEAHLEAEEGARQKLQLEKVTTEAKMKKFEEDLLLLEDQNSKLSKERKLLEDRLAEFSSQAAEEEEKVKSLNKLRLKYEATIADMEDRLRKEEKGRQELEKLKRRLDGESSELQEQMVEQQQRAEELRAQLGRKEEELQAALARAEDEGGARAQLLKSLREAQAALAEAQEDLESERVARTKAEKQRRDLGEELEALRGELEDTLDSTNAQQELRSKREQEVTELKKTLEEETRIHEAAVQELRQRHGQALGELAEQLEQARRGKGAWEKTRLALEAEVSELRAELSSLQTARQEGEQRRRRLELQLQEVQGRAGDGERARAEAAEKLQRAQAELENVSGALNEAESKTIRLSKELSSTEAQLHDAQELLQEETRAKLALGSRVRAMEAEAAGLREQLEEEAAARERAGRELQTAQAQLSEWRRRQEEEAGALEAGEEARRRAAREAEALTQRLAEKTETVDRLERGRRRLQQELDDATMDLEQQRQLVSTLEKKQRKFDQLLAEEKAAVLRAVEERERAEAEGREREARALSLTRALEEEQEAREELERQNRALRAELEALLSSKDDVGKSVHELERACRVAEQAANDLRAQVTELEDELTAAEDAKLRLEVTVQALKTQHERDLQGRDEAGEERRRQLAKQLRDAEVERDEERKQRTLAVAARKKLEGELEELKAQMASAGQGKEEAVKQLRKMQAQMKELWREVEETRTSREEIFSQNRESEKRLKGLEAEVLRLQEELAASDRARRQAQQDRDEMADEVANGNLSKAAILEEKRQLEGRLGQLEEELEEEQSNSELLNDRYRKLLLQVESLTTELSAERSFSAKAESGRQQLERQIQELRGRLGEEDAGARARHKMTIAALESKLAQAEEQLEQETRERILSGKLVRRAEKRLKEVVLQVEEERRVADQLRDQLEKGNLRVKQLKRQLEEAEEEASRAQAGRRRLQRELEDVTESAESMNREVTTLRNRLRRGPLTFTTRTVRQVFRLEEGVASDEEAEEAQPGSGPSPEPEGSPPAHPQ
UniProt P27694: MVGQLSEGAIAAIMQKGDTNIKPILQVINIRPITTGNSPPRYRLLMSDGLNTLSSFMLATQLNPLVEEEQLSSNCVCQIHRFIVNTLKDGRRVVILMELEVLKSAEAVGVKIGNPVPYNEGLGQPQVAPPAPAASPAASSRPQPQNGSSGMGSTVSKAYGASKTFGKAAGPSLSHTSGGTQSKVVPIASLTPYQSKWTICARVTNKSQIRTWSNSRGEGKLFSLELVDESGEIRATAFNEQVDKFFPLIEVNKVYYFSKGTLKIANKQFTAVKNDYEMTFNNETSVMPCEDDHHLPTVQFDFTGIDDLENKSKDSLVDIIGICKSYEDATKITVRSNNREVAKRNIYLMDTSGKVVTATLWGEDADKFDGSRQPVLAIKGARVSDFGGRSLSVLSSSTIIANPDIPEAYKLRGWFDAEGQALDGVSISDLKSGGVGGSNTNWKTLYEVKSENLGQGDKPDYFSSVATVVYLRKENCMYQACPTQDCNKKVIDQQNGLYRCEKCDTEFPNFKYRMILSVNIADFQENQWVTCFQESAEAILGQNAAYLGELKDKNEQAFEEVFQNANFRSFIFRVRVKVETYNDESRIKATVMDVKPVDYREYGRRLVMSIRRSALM
UniProt P61421: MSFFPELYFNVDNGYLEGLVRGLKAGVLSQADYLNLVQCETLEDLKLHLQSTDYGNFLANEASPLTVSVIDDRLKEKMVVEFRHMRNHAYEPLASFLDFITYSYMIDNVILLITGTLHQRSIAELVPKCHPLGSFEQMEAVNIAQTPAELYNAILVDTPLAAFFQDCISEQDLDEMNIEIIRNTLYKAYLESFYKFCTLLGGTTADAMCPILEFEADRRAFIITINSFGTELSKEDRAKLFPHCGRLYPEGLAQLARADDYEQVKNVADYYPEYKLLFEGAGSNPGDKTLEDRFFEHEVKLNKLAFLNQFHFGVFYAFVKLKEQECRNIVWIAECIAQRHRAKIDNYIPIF
UniProt Q9UI12: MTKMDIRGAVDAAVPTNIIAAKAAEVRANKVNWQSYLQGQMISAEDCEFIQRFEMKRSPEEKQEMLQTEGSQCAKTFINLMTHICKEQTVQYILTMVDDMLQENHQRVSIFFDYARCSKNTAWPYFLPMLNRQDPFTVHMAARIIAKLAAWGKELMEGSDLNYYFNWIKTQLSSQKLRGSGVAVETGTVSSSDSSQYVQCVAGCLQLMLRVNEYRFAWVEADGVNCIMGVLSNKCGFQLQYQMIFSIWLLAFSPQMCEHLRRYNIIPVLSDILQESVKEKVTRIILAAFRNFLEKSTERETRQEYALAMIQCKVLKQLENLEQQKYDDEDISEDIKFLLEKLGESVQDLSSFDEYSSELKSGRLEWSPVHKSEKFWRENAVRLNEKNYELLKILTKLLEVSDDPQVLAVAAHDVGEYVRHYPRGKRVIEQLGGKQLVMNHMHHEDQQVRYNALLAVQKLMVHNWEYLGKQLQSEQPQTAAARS
UniProt Q92747: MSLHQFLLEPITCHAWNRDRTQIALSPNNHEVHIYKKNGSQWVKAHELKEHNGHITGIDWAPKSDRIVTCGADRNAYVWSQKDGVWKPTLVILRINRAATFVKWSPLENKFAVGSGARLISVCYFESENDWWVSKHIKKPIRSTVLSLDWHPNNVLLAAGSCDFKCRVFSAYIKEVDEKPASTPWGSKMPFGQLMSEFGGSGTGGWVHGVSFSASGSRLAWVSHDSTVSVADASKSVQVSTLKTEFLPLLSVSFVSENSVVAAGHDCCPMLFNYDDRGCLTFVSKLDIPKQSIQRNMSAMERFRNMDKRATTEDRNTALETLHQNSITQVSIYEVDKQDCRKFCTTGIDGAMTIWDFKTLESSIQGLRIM
UniProt P21281: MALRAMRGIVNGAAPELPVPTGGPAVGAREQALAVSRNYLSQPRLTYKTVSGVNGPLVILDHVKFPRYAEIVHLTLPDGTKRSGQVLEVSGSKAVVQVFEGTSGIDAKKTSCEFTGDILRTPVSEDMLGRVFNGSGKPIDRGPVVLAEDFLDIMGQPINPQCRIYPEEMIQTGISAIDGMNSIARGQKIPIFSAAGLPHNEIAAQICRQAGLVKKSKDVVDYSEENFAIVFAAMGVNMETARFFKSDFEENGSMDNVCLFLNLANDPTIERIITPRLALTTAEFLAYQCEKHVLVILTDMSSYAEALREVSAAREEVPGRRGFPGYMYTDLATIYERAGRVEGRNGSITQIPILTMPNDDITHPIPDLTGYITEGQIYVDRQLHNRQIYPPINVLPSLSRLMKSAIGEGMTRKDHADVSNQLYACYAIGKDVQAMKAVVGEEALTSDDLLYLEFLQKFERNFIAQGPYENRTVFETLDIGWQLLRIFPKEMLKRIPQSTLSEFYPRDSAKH
UniProt P43358: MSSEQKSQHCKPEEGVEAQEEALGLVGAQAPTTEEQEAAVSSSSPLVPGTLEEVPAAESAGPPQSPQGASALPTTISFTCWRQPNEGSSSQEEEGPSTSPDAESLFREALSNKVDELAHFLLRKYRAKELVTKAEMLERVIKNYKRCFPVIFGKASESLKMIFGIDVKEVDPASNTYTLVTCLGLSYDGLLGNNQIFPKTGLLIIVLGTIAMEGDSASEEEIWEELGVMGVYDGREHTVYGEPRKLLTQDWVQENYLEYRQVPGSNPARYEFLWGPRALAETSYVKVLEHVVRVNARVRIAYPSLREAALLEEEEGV

Drawing on paper PMC7594058, this text covers binding for 21 molecules.

No constants are given. Whether binding was seen depends on the method and setting. Binding seen in cells or lysates may run through a third protein. Here binding means that the protein was enriched with, or labelled near, the bait; the list need not be complete.

The assay concerns the target T7-2xStrep-JCV LT-Ag (JC virus (JCV)) (UniProt P03072). As to the kind of experiment: affinity purification with mass spectrometry.
Regarding “Tight junction protein ZO-1 (from UniProt Q07157 1-1748)”, the binding entry is “binds”.
Next, Neurabin-2 (from UniProt Q96SB3 1-817): “binds”; “Melanoma-associated antigen MAGEA1 (from UniProt P43355 1-309)”: “binds”.
With Myosin-14 (from UniProt Q7Z406 1-1995) the entry was “binds”; with “Yb-1 (Y-box binding protein) (from UniProt P67809 1-324)”, “binds”; with “MYO1E variant protein, Unconventional myosin-Ie (from UniProt Q12965 1-1108)”, “binds”.
On to “ATPase, H+ transporting, lysosomal 31 kDa, V1 subunit E isoform (from UniProt P36543 1-226)”, for which the binding result is reported as “binds”.
Next, “Replication protein A 70 kDa DNA-binding subunit (from UniProt P27694 1-616)”: “binds”.
Next, “RIP and coiled-coil domain-containing protein 2 (from UniProt Q8IWJ2 1-1684)”: “binds”; “V-type proton ATPase subunit d 1 (Fragment) (from UniProt P61421 1-351)”: “binds”; “Structural maintenance of chromosomes protein 5 (from UniProt Q8IY18 1-1101)”: “binds”.
With “V-type proton ATPase subunit a (from UniProt Q93050 1-837)”, the binding entry was “binds”.
“ATPase, H+ transporting, lysosomal 50/57 kDa, V1 subunit H, isoform (from UniProt Q9UI12 1-483)”: the binding result is “binds”.
With “Actin related protein 2/3 complex subunit 1A variant (from UniProt Q92747 1-370)” the entry was “binds”; with “V-type proton ATPase subunit B, brain isoform (from UniProt P21281 1-511)”, “binds”; with “Melanoma antigen family A, 4, isoform CRA_a (from UniProt P43358 1-317)”, “binds”.
Next, B1: “binds”.
Next, B2: “binds”.
Take B3: the binding result was “binds”.
As for B4, the binding result was “binds”.
With B5 the entry was “binds”.
